Assay results taken from patent publication US11684675B2, “Dimeric collagen hybridizing peptides and methods of using” (University of Utah Research Foundation, priority 2015, dated 2023).
Some of these results come from one statement about several compounds together.

B1: (PGOGPGPOPOGOGPOPGOOPGGOOPPG-G3)2KG3K^CF (peptide)
chain: PGPGPGPPPPGPGPPPGPPPGGPPPPGGGGKGGGGPPPPGGPPPGPPPGPGPPPPGPGPGP
modifications: branched dimer, carboxyfluorescein label; collagen hybridizing peptide; (3)..(3) Proline is hydroxyproline; (8)..(8) Proline is hydroxyproline; (10)..(10) Proline is hydroxyproline; (12)..(12) Proline is hydroxyproline; (15)..(15) Proline is hydroxyproline; (18)..(18) Proline is hydroxyproline; (19)..(19) Proline is hydroxyproline; (23)..(23) Proline is hydroxyproline; (24)..(24) Proline is hydroxyproline

Tested on: crosslinked gelatin films
Assay: Retention of CF-labelled CHPs in crosslinked gelatin films (bound at 4° C., washed at 25° C./r.t.)
Type: binding, porcine
Method: (A) Fraction of peptide remaining in a crosslinked gelatin film after 17 h at 25° C. (10 total washes). Values are normalized to fluorescence remaining in wells after 6 washes at 4° C. (>95% removal of CHPs 9r, 6r, and 5r). All washes performed in 1×PBS. (B) CHPs (15 μM) premixed into 10% porcine gelatin and preheated to 80° C. (10 min) before being added to a 96 well plate. Excess CHP-gelatin mixture was removed, then the premix was incubated at 4° C. for 2 hours. Wells were washed at 4° C., 5 times (>95% removal of CHPs 9r, 6r, and 5r). Wells were then washed for 2 hours (6 washes total) at 25° C. to monitor CHP remaining in the well. (C) Fluorescence of CHPs remaining in crosslinked gelatin after incubation at 37° C. overnight without preheating, followed by washing with 1×PBS at 37° C. (20 h). (D) Fluorescence of CHPs remaining in crosslinked gelatin after incubation at 37° C. overnight (80° C. preheating, 10 min), followed by washing with 1×PBS at 37° C. (20 h).
Binding to Gelatin films. Peptide solutions (20 μM in PBS) were preheated to 80° C. for 10 minutes before being added directly to the crosslinked gelatin films. Peptides were allowed to fully equilibrate with the gel at 4° C. overnight before being exposed to repeated washes (4×30 min) at 4° to fully remove any non-specifically bound peptide. Gelatin wells were then washed at r.t. with PBS (5×1 h, lx 12 h) to measure retention within the gelatin films. […] To eliminate the possibility of these peptides merely becoming physically entrapped within the gelatin after forming triple helix or forming triple helix before binding, binding affinity was verified by producing a premix of the CHPs and Gelatin to eliminated diffusion-limited binding before washing the wells in a similar manner.
Fluorescence Binding: CHP binding to gelatin was monitored by conjugating a fluorescent Carboxyfluorescein (CF) molecule to the N-terminus of each peptide via standard SPPS. Solutions of the fluorescent peptides were heated to 80° C. for 5 min before injecting 50 μL onto a pre-prepared EDC-crosslinked thin gelatin film in a 96 well plate. Peptides incubated overnight at 4° C., then washed with repeated rounds of 4° C. 1×PBS followed by 25° C. 1×PBS.

[1] = CHP premixed into 10% porcine gelatin, 5 washes at 4° C., FIG. 6B
[2] = after 6 washes at 4° C., FIG. 6A

| Molecule | removal from gelatin film [1] [%] | removal from gelatin film [2] [%] |
| --- | --- | --- |
| (PGOPPOGGPOOGOGOPGP-G3)2KG3K^CF (PGPPPPGGPPPGPGPPGPGGGKGGGPGPPGPGPPPGGPPPPGP; branched dimer, carboxyfluorescein label; collagen hybridizing peptide; (3)..(3) Proline is hydroxyproline; (6)..(6) Proline is hydroxyproline; (10)..(10) Proline is hydroxyproline; (11)..(11) Proline is hydroxyproline; (13)..(13) Proline is hydroxyproline; (15)..(15) Proline is hydroxyproline; (22)..(22) Lysine is a branching point having a string of three glycines and a lysine attached; (29)..(29) Proline is hydroxy) [6r] | > 95 | > 95 |
| (PPOGGPOOGOGOPGP-G3)2KG3K^CF (PPPGGPPPGPGPPGPGGGKGGGPGPPGPGPPPGGPPP; branched dimer, carboxyfluorescein label; collagen hybridizing peptide; (3)..(3) Proline is hydroxyproline; (7)..(7) Proline is hydroxyproline; (8)..(8) Proline is hydroxyproline; (10)..(10) Proline is hydroxyproline; (12)..(12) Proline is hydroxyproline; (19)..(19) Lysine is a branch point having a string of three glycines and a lysine attached; (26)..(26) Proline is hydroxyproline; (28)..(28) Proline is hydroxyproli) [5r] | > 95 | > 95 |
| B1 | > 95 | > 95 |
